This passage reports binding results from publication PMC12884770.

The chains behind the UniProt entries cited, without tags or fusion partners.
UniProt Q96K21: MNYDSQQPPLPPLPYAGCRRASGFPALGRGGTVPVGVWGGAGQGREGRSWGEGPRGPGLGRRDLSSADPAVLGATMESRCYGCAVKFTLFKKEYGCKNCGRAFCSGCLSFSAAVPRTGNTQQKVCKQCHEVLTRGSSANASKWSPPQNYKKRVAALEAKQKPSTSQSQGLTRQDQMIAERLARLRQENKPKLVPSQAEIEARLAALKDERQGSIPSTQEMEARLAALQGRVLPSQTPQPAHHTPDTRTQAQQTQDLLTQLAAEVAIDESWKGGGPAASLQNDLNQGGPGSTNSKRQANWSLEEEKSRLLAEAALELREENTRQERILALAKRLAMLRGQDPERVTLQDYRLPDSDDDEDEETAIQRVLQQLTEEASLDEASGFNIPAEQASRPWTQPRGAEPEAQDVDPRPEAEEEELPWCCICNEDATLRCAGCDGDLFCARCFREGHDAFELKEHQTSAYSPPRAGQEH

Results are given in words; binding and its absence hold for the method and conditions named. In cells and extracts the contact can be indirect. Some results given as binding are weak or reduced against the parent protein; the word gives no strength. Sequences can lack the tags named with a protein.

In assay [1] the target is T1, HA-tagged VPS4A (human) (UniProt Q9UN37).
T1 sequence: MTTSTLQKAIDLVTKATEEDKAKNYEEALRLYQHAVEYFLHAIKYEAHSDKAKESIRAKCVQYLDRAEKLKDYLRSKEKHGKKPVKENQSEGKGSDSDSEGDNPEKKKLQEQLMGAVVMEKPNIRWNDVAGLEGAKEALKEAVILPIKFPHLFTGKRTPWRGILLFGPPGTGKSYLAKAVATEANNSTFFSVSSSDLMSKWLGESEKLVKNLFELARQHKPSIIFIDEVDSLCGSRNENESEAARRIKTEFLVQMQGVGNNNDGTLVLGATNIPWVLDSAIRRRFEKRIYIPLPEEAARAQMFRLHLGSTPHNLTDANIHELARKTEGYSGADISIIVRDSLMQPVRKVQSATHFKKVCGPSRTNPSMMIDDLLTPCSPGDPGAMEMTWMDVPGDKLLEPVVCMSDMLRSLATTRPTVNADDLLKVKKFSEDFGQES
Description: co-IP; HEK293T co-transfected for 24 h with FLAG-tagged ZFYVE19 or its variants and HA-tagged partner; cells sonicated in 1× DPBS; lysate on EZview Red Anti-HA Affinity Gel overnight at 4 °C; five washes with 1× TBS; blots with anti-HA and anti-FLAG.

In assay [2] the target is T2, HA-tagged VPS4B (human) (UniProt O75351).
T2 sequence: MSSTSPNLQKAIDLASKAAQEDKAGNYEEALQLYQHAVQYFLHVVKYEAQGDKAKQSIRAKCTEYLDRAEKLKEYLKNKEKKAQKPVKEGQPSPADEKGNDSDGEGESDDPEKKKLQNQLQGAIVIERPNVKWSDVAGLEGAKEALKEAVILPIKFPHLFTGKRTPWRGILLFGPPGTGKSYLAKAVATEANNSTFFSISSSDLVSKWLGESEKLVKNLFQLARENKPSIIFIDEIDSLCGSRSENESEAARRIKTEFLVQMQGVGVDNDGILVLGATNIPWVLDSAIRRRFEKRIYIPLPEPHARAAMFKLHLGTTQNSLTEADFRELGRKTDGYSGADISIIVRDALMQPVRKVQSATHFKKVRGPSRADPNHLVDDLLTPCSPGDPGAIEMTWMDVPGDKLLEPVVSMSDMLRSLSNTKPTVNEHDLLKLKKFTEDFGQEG
Described as above.

As to “FLAG-tagged ZFYVE19 (Zinc Finger FYVE-Type Containing 19) (from UniProt Q96K21 1-471)”, the binding result in assay [1] and in assay [2] was “binds” throughout.
